From ChEMBL document CHEMBL3988442, “University of Dundee, Small-Polar-MMV Screening Library” (2021).

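Viability assay of Plasmodium falciparum sporozoites; the read-out is not stated. The concentration is filed as 10 mM, unlikely as a test dose, so the dose is not known. Direction is inferred from retests: higher values go with lower viability. Strong results were mostly tested again. Size under these conditions: about 34,000 compounds, about 280 of them at 50% or above in at least one test.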

The filed quantity is “Percent Effect” (%). The record does not define 0% and 100%; most values in the screen are far below 50% and negative numbers occur (in some assays of this library far below -100). Compounds were drawn at random from those tested, without regard to their results. Two or more numbers in one place are separate tests of the same structure; such repeats can differ widely.

structure,effect
Cc1cc(-c2cnc(NC3CC3)nc2-c2ccoc2C)on1,12.17
CCN(CC)C(=O)c1ccn(COc2cc(C)cc(C)c2)n1,-6.579
FC(F)(F)Sc1ccc(NCc2nnc(C3CC3)o2)cc1,-9.591
CN1CCN(c2ncnc3c2CCN(C(=O)c2cccn2C)CC3)CC1,-1.128
CN(C(=O)CCNC(=O)NC1CCCCC1)c1ccccc1,6.877
Cc1ncsc1-c1nnc(C2CCN(Cc3ccc(F)cc3)CC2)o1,-14.81
COc1cc(CNc2cnn(CC(F)F)c2)ccc1O,3.732
Cc1cccc(CN2CCc3ncnc(-c4ccsc4)c3CC2)n1.O=C(O)C(F)(F)F,14.81
Clc1ccc(C2(CNC3=NCCN3)CCCC2)cc1.I,1.228
CSCC(=O)N1CCCC1c1noc(C2CC2)n1 (configuration not stated),2.917 and -2.285 and -72.32
O=C(c1cnccn1)N1CCC2(CC1)CC(Oc1ccccc1)CO2 (configuration not stated),-10.52
CCc1[nH]nc(NC(=O)c2cc[nH]n2)c1C,-2.477
COc1cccc(CC(=O)N2CCc3ncnc(NC(C)C)c3CC2)c1,-13.94
CC(CO)CNC(=O)c1cc2cccc(F)c2o1 (configuration not stated),-9.769
Cc1ccc2oc(C(=O)N3CCC(C(=O)N4CCCC4)CC3)cc2n1,0.3221
[H][C@]12CC[C@]([H])(CN(c3cnccn3)C1)N(C(=O)c1snnc1C)C2,6.491
CC(NC(=O)N1CCCN(C)CC1)c1ccc2c(c1)OCCO2 (configuration not stated),-1.471
CCc1cc(C(F)(F)F)n2nc(C3CCCN3C3CCSCC3)cc2n1.O=C(O)CC(O)(CC(=O)O)C(=O)O (configuration not stated),8.356
CC(C)CCNC(=O)c1ccc(-n2cnc3ccccc3c2=O)cc1,-1.544
Cc1nc(Cc2ccc(F)cc2)cc(C2COCCN2)n1.Cl (configuration not stated),6.206

For reference, 2 entries once more:

structure,effect
Clc1ccc(C2(CNC3=NCCN3)CCCC2)cc1.I,1.228
CSCC(=O)N1CCCC1c1noc(C2CC2)n1 (configuration not stated),2.917 and -2.285 and -72.32